For nine compounds, T/C and survivor count results are on record in PubChem BioAssay AID256 (DTP/NCI, 2004).

The list does not hold the whole screen: it gathers tests that were run many times, whatever their T/C, doses with no T/C, and many T/C values between a quarter and a half above the control. Further doses and runs are listed elsewhere. T/C: endpoint of the treated group in % of that of the vehicle group. Some entries give survivors of the animals treated and no T/C: the source files T/C as zero there, which appears to mark a toxic dose or a test without result, not a measured value. Some survivor counts are full or nearly so, which does not show that the dose was tolerated: the source hardly ever lists a survival T/C far under the control, and the zero likely stands for such cases as well. Survivors were counted at the toxicity check, usually on the fifth day, unless a day is given; later deaths do not show. Schedule codes are those of the source, taken here to give the interval after Q, in days (D) or hours (H), and the number of doses after X. Some doses were run more than once; the values are given in rising order. For survival time, this PubChem deposit counts one and a half times the control or more as active, and values a quarter to a half above the control carry no call in these data; other NCI protocols may use other cut-offs. Additions like (4×) give the number of equal values in this list. Some T/C values carry the count of animals alive at the toxicity check (mostly the fifth day); without a count, all were alive then.

For the test, the system named is CD2F1 mice, L1210 leukemia ip, survival T/C. The test is described as follows: NCI In Vivo Anticancer Drug Screen. Data for tumor model L1210 Leukemia (intraperitoneal) in CD2F1 (CDF1) mice. The conditions noted are these: T/C endpoint: mean survival time, higher T/C = longer survival. The essentials:
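Mice carrying a transplanted tumor received test compound or vehicle alone. The value is the measurement in the treated group divided by that in the vehicle-treated control group.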

Setting [1] is: dose: 200.0 mg/kg/injection, schedule: Q01DX009 (oral), vehicle: saline.
The mark [2] stands for this setting: dose: 400.0 mg/kg/injection, schedule: Q04DX003 (ip), vehicle: saline.
The mark [3] stands for this setting: dose: 100.0 mg/kg/injection, schedule: Q04DX003 (ip), vehicle: saline with Tween-80.
The mark [4] stands for this setting: dose: 200.0 mg/kg/injection, schedule: Q04DX003 (ip), vehicle: saline with Tween-80.
The mark [5] stands for this setting: dose: 400.0 mg/kg/injection, schedule: Q01DX009 (ip), vehicle: saline with Tween-80.

On to `C=CCNC(=O)NCC=C`, for which the T/C runs as follows: (dose: 3.13 mg/kg/injection, schedule: Q01DX009 (oral), vehicle: saline) 106, 108, 111 (2×), 114, 117 % of control; (dose: 6.25 mg/kg/injection, schedule: Q01DX009 (ip), vehicle: saline, evaluated on day 30) 104, 108, 114 % of control; (dose: 6.25 mg/kg/injection, schedule: Q01DX009 (ip), vehicle: saline, evaluated on day 60) 106 % of control; (dose: 6.25 mg/kg/injection, schedule: Q01DX009 (oral), vehicle: saline, evaluated on day 30) 108, 113 [5 of 6 alive], 115 (2×), 120, 125 % of control; (dose: 6.25 mg/kg/injection, schedule: Q01DX009 (oral), vehicle: saline, evaluated on day 60) 104 % of control; (dose: 12.5 mg/kg/injection, schedule: Q01DX009 (ip), vehicle: saline, evaluated on day 30) 118 % of control (3×). Moreover, the T/C (dose: 12.5 mg/kg/injection, schedule: Q01DX009 (ip), vehicle: saline, evaluated on day 60) is 101 % of control; the T/C (dose: 12.5 mg/kg/injection, schedule: Q01DX009 (oral), vehicle: saline, evaluated on day 30) is recorded as 125, 126, 127, 128, 132, 138 % of control; the T/C (dose: 12.5 mg/kg/injection, schedule: Q01DX009 (oral), vehicle: saline, evaluated on day 60) is 127 % of control; the T/C (dose: 25.0 mg/kg/injection, schedule: Q01DX006 (ip), vehicle: saline) is 142 % of control; the T/C (dose: 25.0 mg/kg/injection, schedule: Q01DX009 (ip), vehicle: saline, evaluated on day 30) is 107, 118, 120 (2×), 134 % of control; the T/C (dose: 25.0 mg/kg/injection, schedule: Q01DX009 (ip), vehicle: saline, evaluated on day 60) is 101 % of control. For the same compound, the T/C by setting is: (dose: 25.0 mg/kg/injection, schedule: Q01DX009 (oral), vehicle: saline, evaluated on day 30) 144, 151, 155, 156, 159 % of control (2×); (dose: 25.0 mg/kg/injection, schedule: Q01DX009 (oral), vehicle: saline, evaluated on day 60) 142 % of control; (dose: 50.0 mg/kg/injection, schedule: Q01DX006 (ip), vehicle: saline) 144 % of control; (dose: 50.0 mg/kg/injection, schedule: Q01DX009 (ip), vehicle: saline, evaluated on day 30) 115, 127, 130, 134 % of control (2×); (dose: 50.0 mg/kg/injection, schedule: Q01DX009 (ip), vehicle: saline, evaluated on day 60) 107 % of control; (dose: 50.0 mg/kg/injection, schedule: Q01DX009 (oral), vehicle: saline, evaluated on day 30) 118, 146, 148, 177, 181 % of control (2×). For the same compound, the T/C is, setting by setting: (dose: 50.0 mg/kg/injection, schedule: Q01DX009 (oral), vehicle: saline, evaluated on day 60) 136 % of control; (dose: 100.0 mg/kg/injection, schedule: Q01DX001 (oral), vehicle: saline) 127 % of control; (dose: 100.0 mg/kg/injection, schedule: Q01DX007 (ip), vehicle: saline) 144 % of control; (dose: 100.0 mg/kg/injection, schedule: Q01DX009 (ip), vehicle: saline, evaluated on day 30) 122, 123, 134, 136 (2×), 138 % of control; (dose: 100.0 mg/kg/injection, schedule: Q01DX009 (ip), vehicle: saline, evaluated on day 60) 119 % of control; (dose: 100.0 mg/kg/injection, schedule: Q01DX009 (oral), vehicle: saline, evaluated on day 30) 118, 119, 121, 132, 160 % of control. For the same compound, the T/C reads like this: (dose: 100.0 mg/kg/injection, schedule: Q01DX009 (oral), vehicle: saline, evaluated on day 60) 98 % of control [4 of 6 alive]; (dose: 200.0 mg/kg/injection, schedule: Q01DX001 (oral), vehicle: saline) 125 % of control; (dose: 200.0 mg/kg/injection, schedule: Q01DX005 (ip), vehicle: saline) 125 % of control; (dose: 200.0 mg/kg/injection, schedule: Q01DX007 (ip), vehicle: saline) 142 % of control; (dose: 200.0 mg/kg/injection, schedule: Q01DX009 (ip), vehicle: saline, evaluated on day 30) 114, 119, 129 [5 of 6 alive], 138 (2×), 144 % of control; (dose: 200.0 mg/kg/injection, schedule: Q01DX009 (ip), vehicle: saline, evaluated on day 60) 136 % of control. Also, the T/C was 88, 93, 96 [4 of 6 alive], 102, 116, 132 % of control under setting [1]; 126 % of control (dose: 200.0 mg/kg/injection, schedule: Q03DX003 (ip), vehicle: saline); 138 % of control (dose: 400.0 mg/kg/injection, schedule: Q01DX001 (oral), vehicle: saline); 129 % of control (dose: 400.0 mg/kg/injection, schedule: Q01DX005 (ip), vehicle: saline). Besides, the survivor count reads like this: (dose: 100.0 mg/kg/injection, schedule: Q01DX009 (oral), vehicle: saline) 2 of 6; under setting [1], 3 of 6; (dose: 400.0 mg/kg/injection, schedule: Q01DX007 (ip), vehicle: saline) 3 of 6; (dose: 400.0 mg/kg/injection, schedule: Q01DX009 (ip), vehicle: saline) 0 of 6 and 1 of 6; (dose: 400.0 mg/kg/injection, schedule: Q01DX009 (oral), vehicle: saline) 0 of 6; (dose: 400.0 mg/kg/injection, schedule: Q03DX003 (ip), vehicle: saline) 3 of 6. For the same compound, the survivor count reads like this: under setting [2], 1 of 6; (dose: 800.0 mg/kg/injection, schedule: Q01DX001 (oral), vehicle: saline) 1 of 6; (dose: 800.0 mg/kg/injection, schedule: Q01DX005 (ip), vehicle: saline) 0 of 6; (dose: 800.0 mg/kg/injection, schedule: Q02DX005 (ip), vehicle: saline) 0 of 6; (dose: 800.0 mg/kg/injection, schedule: Q04DX003 (ip), vehicle: saline) 0 of 6.
As to `CC[N-]c1nncs1.CC[N-]c1nncs1.CC[N-]c1nncs1.CC[N-]c1nncs1.[Cl][Rh][Cl]`, the survivor count is reported as 2 of 6 (dose: 100.0 mg/kg/injection, schedule: Q04DX003 (ip), vehicle: distilled water + Tween-80) and 0 of 6 (dose: 200.0 mg/kg/injection, schedule: Q04DX003 (ip), vehicle: distilled water + Tween-80).
`COc1ccc(C(=O)NC[n+]2ccccc2)cc1`: the survivor count by setting is: (dose: 200.0 mg/kg/injection, schedule: Q04DX003 (ip), vehicle: saline) 0 of 6; under setting [2], 0 of 6.
Consider `COc1cc(CNC(=O)CCCC2CCC2)ccc1O`, for which the survivor count was 2 of 6 under setting [3]; 1 of 6 under setting [4]; 0 of 6 (dose: 400.0 mg/kg/injection, schedule: Q04DX003 (ip), vehicle: saline with Tween-80).
As for `[Cl-].[NH-]CCN(CC[NH-])CCN.[O-][Cl+3]([O-])([O-])O.[O-][Cl+3]([O-])([O-])O.[Pt+2]`, the survivor count was 6 of 6 (dose: 25.0 mg/kg/injection, schedule: Q04DX003 (ip), vehicle: saline with Tween-80); 0 of 6 (dose: 50.0 mg/kg/injection, schedule: Q04DX003 (ip), vehicle: saline with Tween-80); 0 of 6 under setting [3]; 0 of 6 under setting [4].
For `COc1cc2c(C(=O)O)cc(-c3ccc(Cl)cc3)nc2cc1Cl`, the survivor count is 2 of 6 (dose: 200.0 mg/kg/injection, schedule: Q01DX001 (ip), vehicle: saline) and 0 of 6 (dose: 400.0 mg/kg/injection, schedule: Q01DX001 (ip), vehicle: saline).
As for `CC1(C(=O)O)CCOC1=O` (configuration not stated), the survivor count (dose: 400.0 mg/kg/injection, schedule: Q04DX002 (ip), vehicle: saline) was 2 of 3.
`O=C(C[n+]1ccccc1)N/N=C/c1ccccc1Cl`: the survivor count is, setting by setting: (dose: 200.0 mg/kg/injection, schedule: Q01DX009 (ip), vehicle: saline with Tween-80) 0 of 6; under setting [5], 0 of 6.
Consider `COc1ccc(C[C@@H]2NC[C@@H](O)[C@@H]2OC(C)=O)cc1`, for which the survivor count under setting [5] is on record as 3 of 6.
